Common to all, as to type: cell-based
In one test the test system is MDA-MB-231. The test can be described thus: 3D Cell Proliferation Screen, MDA-MB-231. As to conditions: Homo sapiens, 120 h, MDA-MB-231 breast spheroids, 5 days, positive control. As to the method: (§1) Experimental Methods: 3D Cell Proliferation Assay
(§2) Cells were seeded at 1000 cells/well in media in 384-well Corning® Spheroid microplates. The microplates were incubated at 37 C in 5% CO2 incubator to allow for spheroid formation.
(§3) Aliquots of each sample were vortexed and centrifuged at 3,000 rpm (800 g) for 5 minutes at room temperature. Supernatants (500-fold stocks) were stored under sterile conditions at 4 C.
(§4) On the day of the assay, a 9-point dose-response of each 500-fold stock was prepared and added to the spheroid plates to provide final assay concentrations ranging from 1e-04 to 1-fold, in 0.2% DMSO. Final assay conditions for each sample are shown on Table 1.
(§5) Assay plates were incubated at 37 C in an atmosphere containing 5% CO2 for 5 days. Staurosporine, a compound known to induce cellular apotosis, was used a positive control for terminated cell proliferation. Cell viability was determined at 5 days post-compound addition. Briefly, 3D-CellTiter Glow™ reagent (Promega) was added to assay plates per the manufacturer's recommendations. Plates were shaken until spheroids were lysed and luminescence was read at room temperature.
(§6) Cell proliferation end point was analyzed as Percent of Control (POC) using the following formula: […]
A relative cell count EC50 is the concentration of the test compound that produces a response half-way between the maximum and baseline. Relative cell count IC50 is the concentration of the test compound that produces 50% of the cell proliferation inhibitory response or 50% cytotoxicity level. GI50 is the concentration of the test compound that produces 50% reduction in proliferation of cancer cells relative to T0. The output of each biomarker is fold-increase over vehicle control background normalized to the relative cell count in each well.
EC50, IC50 and GI50 values were calculated using nonlinear regression to fit data to a sigmoidal 4-point, 4-parameter log-logistic dose response model:
Curve-fitting and EC50 calculations were performed using the R statistical software package with R's drc library.

The subject of a further test is A-549. The test can be described thus: 3D Cell Proliferation Screen, A-549. As to conditions: Homo sapiens, A549, 120 h; A-549 lung spheroids, 5 days; positive control. Here is the method:
as §1, §2, §3, §4, §5, §6
(§7) EC50, IC50 and GI50 values were calculated using nonlinear regression to fit data to a sigmoidal 4-point, 4-parameter log-logistic dose response model: […]

The next test deals with A-431. The test can be described thus: 3D Cell Proliferation Screen, A-431. As to conditions: Homo sapiens, 120 h; A-431 skin spheroids, 5 days; positive control. Here is the method:
as §1, §2, §3, §4, §5, §6, §7

The next test concerns 22Rv-1. In words: 3D Cell Proliferation Screen, 22Rv-1. Particulars: Homo sapiens, 22Rv1, 120 h; 22Rv-1 prostate spheroids, 5 days; positive control. Here is the method:
as §1, §2, §3, §4, §5, §6, §7

The next test deals with BT-474. The test can be described thus: 3D Cell Proliferation Screen, BT-474. As to conditions: Homo sapiens, 120 h; BT-474 breast spheroids, 5 days; positive control. Here is the method:
as §1, §2, §3, §4, §5, §6, §7

A further test deals with PC-3. In words: 3D Cell Proliferation Screen, PC-3. As to conditions: Homo sapiens, 120 h; PC-3 prostate spheroids, 5 days; positive control. Here is the method:
as §1, §2, §3, §4, §5, §6, §7

The test system of another test is NCI-H460. The test can be described thus: 3D Cell Proliferation Screen, NCI-H460. Particulars: Homo sapiens, 120 h; NCI-H460 lung spheroids, 5 days; positive control. As to the method: as §1, §2, §3, §4, §5, §6, §7

pEC50, pIC50: −log10 of the molar value.

Usually pEC50 stands for the negative decadic logarithm of the EC50, by convention in mol/L. Lower therefore signals a high EC50. By pIC50 is commonly meant the negative decadic logarithm of the IC50, by convention in mol/L. As usually defined, the GI50 is the concentration giving 50% growth inhibition. Low values mean more potent growth inhibition, high ones less potent growth inhibition. Consider `CN[C@@H]1C[C@H]2O[C@@](C)([C@@H]1OC)n1c3ccccc3c3c4c(c5c6ccccc6n2c5c31)C(=O)NC4` [Staurosporine], for which the pEC50 was 9.00 in the test with MDA-MB-231; 9.00 in the test on A-431; 7.72 with 22Rv-1; 7.36 in the test on BT-474; 8.70 in the test with PC-3; 7.70 with NCI-H460. Further, the pIC50 was 9.00 with MDA-MB-231; 7.70 in the test with A-549; 9.00 in the test on A-431; 7.70 in the test on 22Rv-1; 7.36 in the test on BT-474; 7.68 in the test with NCI-H460. For the same compound, the GI50 in the test with MDA-MB-231 (relative to T0) came to 1 nM.

The values are drawn from patent publication US20240091292A1, “METHODS FOR TREATMENT OF HUMAN CANCERS USING CANNABIS COMPOSITIONS” (Apollon Formularies PLC, priority 2021, published 2024).
